Data published in the supplement of paper PMC4604168 (melanoma cell lines).
The list shows a part of the results. Repeats are few or missing, and single values can be far off.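 Imaging used 1,536-well plates; nuclei positive for cleaved PARP by antibody were divided by total DNA-stained nuclei to yield the apoptosis fraction. Doses for screening kept most cells viable, and cell lines differ markedly in resting and induced cleaved-PARP levels.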

Columns and labels:
Assay in all cases: cleaved PARP positive nuclei fraction relative to DMSO control; melanoma cells; higher = more apoptosis
Conditions in all cases: library dose: low library concentration; 72 h
501Mel = test system: 501Mel
A101D = test system: A101D
A2058 = test system: A2058
A375 = test system: A375
C32 = test system: C32
CBRC008 = test system: CBRC008 (line from a melanoma biopsy)
CBRC014 = test system: CBRC014 (line from a melanoma biopsy)
CBRC016 = test system: CBRC016 (line from a melanoma biopsy)
CBRC017 = test system: CBRC017 (line from a melanoma biopsy)
CBRC034 = test system: CBRC034 (line from a melanoma biopsy)
COLO792 = test system: COLO792
COLO800 = test system: COLO800
COLO829 = test system: COLO829
G361 = test system: G361
IPC-298 = test system: IPC-298
IST-MEL1 = test system: IST-MEL1
LB2518-MEL = test system: LB2518-MEL
LOXIMVI = test system: LOXIMVI
MEL-HO = test system: MEL-HO

CC1(C)CCC(c2ccc(Cl)cc2)=C(CN2CCN(c3ccc(C(=O)NS(=O)(=O)c4ccc(N[C@H](CCN5CCOCC5)CSc5ccccc5)c(S(=O)(=O)C(F)(F)F)c4)cc3)CC2)C1 + OCc1c[nH]c2ccccc12 [Indole-3-carbinol] (first compound 0.4 µM, partner dose 0.8 µM)
cleaved PARP positive nuclei fraction (501Mel): 136%
cleaved PARP positive nuclei fraction (A101D): 191%
cleaved PARP positive nuclei fraction (A2058): 118%
cleaved PARP positive nuclei fraction (A375): 329%
cleaved PARP positive nuclei fraction (C32): 299%
cleaved PARP positive nuclei fraction (CBRC008): 352%
cleaved PARP positive nuclei fraction (CBRC014): 661%
cleaved PARP positive nuclei fraction (CBRC016): 659%
cleaved PARP positive nuclei fraction (CBRC017): 258%
cleaved PARP positive nuclei fraction (CBRC034): 79.5%
cleaved PARP positive nuclei fraction (COLO792): 281%
cleaved PARP positive nuclei fraction (COLO800): 113%
cleaved PARP positive nuclei fraction (COLO829): 39.6%
cleaved PARP positive nuclei fraction (G361): 180%
cleaved PARP positive nuclei fraction (IPC-298): 80.8%
cleaved PARP positive nuclei fraction (IST-MEL1): 44.8%
cleaved PARP positive nuclei fraction (LB2518-MEL): 114%
cleaved PARP positive nuclei fraction (LOXIMVI): 45.8%
cleaved PARP positive nuclei fraction (MEL-HO): 141%

C[C@]1(O)C[C@@H](c2nc(-c3ccc4ccc(-c5ccccc5)nc4c3)c3c(N)nccn32)C1 + Cn1nnc2c(C(N)=O)ncn2c1=O [temozolomide] (first compound 0.4 µM, partner dose 2 µM)
cleaved PARP positive nuclei fraction (501Mel): 105%
cleaved PARP positive nuclei fraction (A101D): 62%
cleaved PARP positive nuclei fraction (A2058): 126%
cleaved PARP positive nuclei fraction (A375): 367%
cleaved PARP positive nuclei fraction (C32): 321%
cleaved PARP positive nuclei fraction (CBRC008): 54.2%
cleaved PARP positive nuclei fraction (CBRC014): 219%
cleaved PARP positive nuclei fraction (CBRC016): 34.1%
cleaved PARP positive nuclei fraction (CBRC017): 124%
cleaved PARP positive nuclei fraction (CBRC034): 37.2%
cleaved PARP positive nuclei fraction (COLO792): 107%
cleaved PARP positive nuclei fraction (COLO800): 78.3%
cleaved PARP positive nuclei fraction (COLO829): 131%
cleaved PARP positive nuclei fraction (G361): 168%
cleaved PARP positive nuclei fraction (IPC-298): 93.9%
cleaved PARP positive nuclei fraction (IST-MEL1): 131%
cleaved PARP positive nuclei fraction (LB2518-MEL): 222%
cleaved PARP positive nuclei fraction (LOXIMVI): 161%
cleaved PARP positive nuclei fraction (MEL-HO): 29.2%

Cn1cnc2c(F)c(Nc3ccc(Br)cc3Cl)c(C(=O)NOCCO)cc21 [selumetinib] + COc1ccc(C2=N[C@@H](c3ccc(Cl)cc3)[C@@H](c3ccc(Cl)cc3)N2C(=O)N2CCNC(=O)C2)c(OC(C)C)c1 [Nutlin-3] (first compound 0.015 µM, partner dose 0.1 µM)
cleaved PARP positive nuclei fraction (501Mel): 636%
cleaved PARP positive nuclei fraction (A101D): 221%
cleaved PARP positive nuclei fraction (A2058): 203%
cleaved PARP positive nuclei fraction (A375): 196%
cleaved PARP positive nuclei fraction (C32): 76.3%
cleaved PARP positive nuclei fraction (CBRC008): 85.6%
cleaved PARP positive nuclei fraction (CBRC014): 84.3%
cleaved PARP positive nuclei fraction (CBRC016): 101%
cleaved PARP positive nuclei fraction (CBRC017): 118%
cleaved PARP positive nuclei fraction (CBRC034): 224%
cleaved PARP positive nuclei fraction (COLO792): 98%
cleaved PARP positive nuclei fraction (COLO800): 103%
cleaved PARP positive nuclei fraction (COLO829): 107%
cleaved PARP positive nuclei fraction (G361): 122%
cleaved PARP positive nuclei fraction (IPC-298): 135%
cleaved PARP positive nuclei fraction (IST-MEL1): 97.4%
cleaved PARP positive nuclei fraction (LB2518-MEL): 356%
cleaved PARP positive nuclei fraction (LOXIMVI): 181%
cleaved PARP positive nuclei fraction (MEL-HO): 91.4%

COc1ccc(C2=N[C@@H](c3ccc(Cl)cc3)[C@@H](c3ccc(Cl)cc3)N2C(=O)N2CCNC(=O)C2)c(OC(C)C)c1 [Nutlin-3] + OCc1c[nH]c2ccccc12 [Indole-3-carbinol] (first compound 0.1 µM, partner dose 0.8 µM)
cleaved PARP positive nuclei fraction (501Mel): 62.6%
cleaved PARP positive nuclei fraction (A101D): 95.6%
cleaved PARP positive nuclei fraction (A2058): 137%
cleaved PARP positive nuclei fraction (A375): 106%
cleaved PARP positive nuclei fraction (C32): 216%
cleaved PARP positive nuclei fraction (CBRC008): 154%
cleaved PARP positive nuclei fraction (CBRC014): 89.3%
cleaved PARP positive nuclei fraction (CBRC016): 45%
cleaved PARP positive nuclei fraction (CBRC017): 99.2%
cleaved PARP positive nuclei fraction (CBRC034): 52.9%
cleaved PARP positive nuclei fraction (COLO792): 105%
cleaved PARP positive nuclei fraction (COLO800): 127%
cleaved PARP positive nuclei fraction (COLO829): 114%
cleaved PARP positive nuclei fraction (G361): 165%
cleaved PARP positive nuclei fraction (IPC-298): 80.3%
cleaved PARP positive nuclei fraction (IST-MEL1): 93.3%
cleaved PARP positive nuclei fraction (LB2518-MEL): 110%
cleaved PARP positive nuclei fraction (LOXIMVI): 139%
cleaved PARP positive nuclei fraction (MEL-HO): 26.7%

CN(c1ncccc1CNc1nc(Nc2ccc3c(c2)CC(=O)N3)ncc1C(F)(F)F)S(C)(=O)=O + Nc1ncn([C@H]2C[C@H](O)[C@@H](CO)O2)c(=O)n1 [decitabine] (first compound 0.08 µM, partner dose 0.1 µM)
cleaved PARP positive nuclei fraction (501Mel): 121%
cleaved PARP positive nuclei fraction (A101D): 50.9%
cleaved PARP positive nuclei fraction (A2058): 156%
cleaved PARP positive nuclei fraction (A375): 76.4%
cleaved PARP positive nuclei fraction (C32): 84.9%
cleaved PARP positive nuclei fraction (CBRC008): 111%
cleaved PARP positive nuclei fraction (CBRC014): 120%
cleaved PARP positive nuclei fraction (CBRC016): 150%
cleaved PARP positive nuclei fraction (CBRC017): 115%
cleaved PARP positive nuclei fraction (CBRC034): 66.8%
cleaved PARP positive nuclei fraction (COLO792): 48.8%
cleaved PARP positive nuclei fraction (COLO800): 50.7%
cleaved PARP positive nuclei fraction (COLO829): 125%
cleaved PARP positive nuclei fraction (G361): 95.9%
cleaved PARP positive nuclei fraction (IPC-298): 67.7%
cleaved PARP positive nuclei fraction (IST-MEL1): 49.9%
cleaved PARP positive nuclei fraction (LB2518-MEL): 205%
cleaved PARP positive nuclei fraction (LOXIMVI): 116%
cleaved PARP positive nuclei fraction (MEL-HO): 48.1%

Cn1cnc2c(F)c(Nc3ccc(Br)cc3Cl)c(C(=O)NOCCO)cc21 [selumetinib] + O=C(O)[C@@H]1[O][Sb](=[O])([O][Sb]2(=[O])[O][C@H]([C@H](O)CO)[C@H](O)[C@H](C(=O)O)[O]2)[O][C@H]([C@H](O)CO)[C@@H]1O [stibogluconate] (first compound 0.015 µM, partner dose 2 µM)
cleaved PARP positive nuclei fraction (501Mel): 633%
cleaved PARP positive nuclei fraction (A101D): 122%
cleaved PARP positive nuclei fraction (A2058): 106%
cleaved PARP positive nuclei fraction (A375): 403%
cleaved PARP positive nuclei fraction (C32): 93.5%
cleaved PARP positive nuclei fraction (CBRC008): 104%
cleaved PARP positive nuclei fraction (CBRC014): 89.3%
cleaved PARP positive nuclei fraction (CBRC016): 57.1%
cleaved PARP positive nuclei fraction (CBRC017): 128%
cleaved PARP positive nuclei fraction (CBRC034): 43.2%
cleaved PARP positive nuclei fraction (COLO792): 94.4%
cleaved PARP positive nuclei fraction (COLO800): 140%
cleaved PARP positive nuclei fraction (COLO829): 85.1%
cleaved PARP positive nuclei fraction (G361): 103%
cleaved PARP positive nuclei fraction (IPC-298): 183%
cleaved PARP positive nuclei fraction (IST-MEL1): 99.9%
cleaved PARP positive nuclei fraction (LB2518-MEL): 333%
cleaved PARP positive nuclei fraction (LOXIMVI): 52%
cleaved PARP positive nuclei fraction (MEL-HO): 149%

CN(c1ncccc1CNc1nc(Nc2ccc3c(c2)CC(=O)N3)ncc1C(F)(F)F)S(C)(=O)=O + Cc1nc(Nc2ncc(C(=O)Nc3c(C)cccc3Cl)s2)cc(N2CCN(CCO)CC2)n1 [dasatanib] (first compound 0.08 µM, partner dose 0.004 µM)
cleaved PARP positive nuclei fraction (501Mel): 162%
cleaved PARP positive nuclei fraction (A101D): 121%
cleaved PARP positive nuclei fraction (A2058): 261%
cleaved PARP positive nuclei fraction (A375): 248%
cleaved PARP positive nuclei fraction (C32): 82.4%
cleaved PARP positive nuclei fraction (CBRC008): 25.9%
cleaved PARP positive nuclei fraction (CBRC014): 116%
cleaved PARP positive nuclei fraction (CBRC016): 192%
cleaved PARP positive nuclei fraction (CBRC017): 111%
cleaved PARP positive nuclei fraction (CBRC034): 279%
cleaved PARP positive nuclei fraction (COLO792): 179%
cleaved PARP positive nuclei fraction (COLO800): 36.1%
cleaved PARP positive nuclei fraction (COLO829): 176%
cleaved PARP positive nuclei fraction (G361): 88.2%
cleaved PARP positive nuclei fraction (IPC-298): 44.7%
cleaved PARP positive nuclei fraction (IST-MEL1): 134%
cleaved PARP positive nuclei fraction (LB2518-MEL): 105%
cleaved PARP positive nuclei fraction (LOXIMVI): 133%
cleaved PARP positive nuclei fraction (MEL-HO): 121%

CCCCCCCCc1ccc(CCC(N)(CO)CO)cc1 [fingolimod] + CS(=O)(=O)CCNCc1ccc(-c2ccc3ncnc(Nc4ccc(OCc5cccc(F)c5)c(Cl)c4)c3c2)o1 [lapatinib] (first compound 2 µM, partner dose 0.8 µM)
cleaved PARP positive nuclei fraction (501Mel): 138%
cleaved PARP positive nuclei fraction (A101D): 99%
cleaved PARP positive nuclei fraction (A2058): 67%
cleaved PARP positive nuclei fraction (A375): 90.6%
cleaved PARP positive nuclei fraction (C32): 249%
cleaved PARP positive nuclei fraction (CBRC008): 160%
cleaved PARP positive nuclei fraction (CBRC014): 100%
cleaved PARP positive nuclei fraction (CBRC016): 39.8%
cleaved PARP positive nuclei fraction (CBRC017): 89.6%
cleaved PARP positive nuclei fraction (CBRC034): 126%
cleaved PARP positive nuclei fraction (COLO792): 147%
cleaved PARP positive nuclei fraction (COLO800): 159%
cleaved PARP positive nuclei fraction (COLO829): 145%
cleaved PARP positive nuclei fraction (G361): 61.2%
cleaved PARP positive nuclei fraction (IPC-298): 58.7%
cleaved PARP positive nuclei fraction (IST-MEL1): 56.8%
cleaved PARP positive nuclei fraction (LB2518-MEL): 102%
cleaved PARP positive nuclei fraction (LOXIMVI): 108%
cleaved PARP positive nuclei fraction (MEL-HO): 107%

NC(=O)c1ccc(N(C(N)=O)c2c(F)cccc2F)nc1-c1ccc(F)cc1F + COc1ccc(Cl)c(Nc2nc3ccccc3nc2NS(=O)(=O)c2cccc(NC(=O)C(C)(C)N)c2)c1 [XL147] (first compound 0.4 µM, partner dose 0.8 µM)
cleaved PARP positive nuclei fraction (501Mel): 63.4%
cleaved PARP positive nuclei fraction (A101D): 82.3%
cleaved PARP positive nuclei fraction (A2058): 147%
cleaved PARP positive nuclei fraction (A375): 223%
cleaved PARP positive nuclei fraction (C32): 71.9%
cleaved PARP positive nuclei fraction (CBRC008): 98.7%
cleaved PARP positive nuclei fraction (CBRC014): 111%
cleaved PARP positive nuclei fraction (CBRC016): 76.9%
cleaved PARP positive nuclei fraction (CBRC017): 139%
cleaved PARP positive nuclei fraction (CBRC034): 70.6%
cleaved PARP positive nuclei fraction (COLO792): 104%
cleaved PARP positive nuclei fraction (COLO800): 73.2%
cleaved PARP positive nuclei fraction (COLO829): 157%
cleaved PARP positive nuclei fraction (G361): 203%
cleaved PARP positive nuclei fraction (IPC-298): 172%
cleaved PARP positive nuclei fraction (IST-MEL1): 44.7%
cleaved PARP positive nuclei fraction (LB2518-MEL): 236%
cleaved PARP positive nuclei fraction (LOXIMVI): 109%
cleaved PARP positive nuclei fraction (MEL-HO): 122%
